Measurements published in patent US20130224187A1 (Alexion, published 2013).
These are yes or no findings as the source states them, for the method shown. In cells and extracts the contact can be indirect. Some entries that bind do so weakly or less than the wild type.

T1: cynomolgus macaque C5a (cynomolgus macaque)
T1 construct: also called recombinant cynomolgus macaque C5a; cynomolgus C5a
T1 chain: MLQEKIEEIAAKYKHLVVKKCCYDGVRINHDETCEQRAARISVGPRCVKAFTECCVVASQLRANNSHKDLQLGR

T2: rhesus macaque C5a (rhesus macaque)
T2 sequence: T1 chain

B1: BNJ369 (antibody, human IgG2, kappa)
heavy: QVQLVQSGAEVKKPGASVKVSCKASGYTFTDYSMDWVRQAPGQGLEWMGAIHLNTGYTNYNQKFKGRVTMTRDTSTSTVYMELSSLRSEDTAVYYCARGFYDGYSPMDYWGQGTTVTVSSASTKGPSVFPLAPCSRSTSESTAALGCLVKDYFPEPVTVSWNSGALTSGVHTFPAVLQSSGLYSLSSVVTVPSSNFGTQTYTCNVDHKPSNTKVDKTVERKCCVECPPCPAPPVAGPSVFLFPPKPKDTLMISRTPEVTCVVVDVSQEDPEVQFNWYVDGVEVHNAKTKPREEQFNSTYRVVSVLTVLHQDWLNGKEYKCKVSNKGLPSSIEKTISKAKGQPREPQVYTLPPSQEEMTKNQVSLTCLVKGFYPSDIAVEWESNGQPENNYKTTPPVLDSDGSFFLYSRLTVDKSRWQEGNVFSCSVMHEALHNHYTQKSLSLSLGK
light: DIVMTQSPDSLAVSLGERATINCRASESVDSYGNSFMHWYQQKPGQPPKLLIYRASNLESGVPDRFSGSGSGTDFTLTISSLQAEDVAVYYCQQSNEDPYTFGGGTKVEIKRTVAAPSVFIFPPSDEQLKSGTASVVCLLNNFYPREAKVQWKVDNALQSGNSQESVTEQDSKDSTYSLSSTLTLSKADYEKHKVYACEVTHQGLSSPVTKSFNRGEC
notes: Humanized full length IgG
B2: BNJ364 (antibody, human IgG2, kappa)
heavy: QVQLVQSGAEVKKPGASVKVSCKASGYTFTDYSMDWVRQAPGQGLEWMGAINPNSGGTNYNQKFKDRVTMTRDTSTSTVYMELSSLRSEDTAVYYCARSGSYDGYYAMDYWGQGTTVTVSSASTKGPSVFPLAPCSRSTSESTAALGCLVKDYFPEPVTVSWNSGALTSGVHTFPAVLQSSGLYSLSSVVTVPSSNFGTQTYTCNVDHKPSNTKVDKTVERKCCVECPPCPAPPVAGPSVFLFPPKPKDTLMISRTPEVTCVVVDVSHEDPEVQFNWYVDGVEVHNAKTKPREEQFNSTFRVVSVLTVVHQDWLNGKEYKCKVSNKGLPAPIEKTISKTKGQPREPQVYTLPPSREEMTKNQVSLTCLVKGFYPSDISVEWESNGQPENNYKTTPPMLDSDGSFFLYSKLTVDKSRWQQGNVFSCSVMHEALHNHYTQKSLSLSPGK
light: B1 light
notes: Humanized full length IgG
B3: BNJ366 (antibody, human IgG2, kappa)
heavy: QVQLVQSGAEVKKPGASVKVSCKASGYTFTDYSMDWVRQAPGQGLEWMGAIHLNTGYTNYNQKFKGRVTMTRDTSTSTVYMELSSLRSEDTAVYYCARGFYDGYSPMDYWGQGTTVTVSSASTKGPSVFPLAPCSRSTSESTAALGCLVKDYFPEPVTVSWNSGALTSGVHTFPAVLQSSGLYSLSSVVTVPSSNFGTQTYTCNVDHKPSNTKVDKTVERKCCVECPPCPAPPVAGPSVFLFPPKPKDTLMISRTPEVTCVVVDVSHEDPEVQFNWYVDGVEVHNAKTKPREEQFNSTFRVVSVLTVVHQDWLNGKEYKCKVSNKGLPAPIEKTISKTKGQPREPQVYTLPPSREEMTKNQVSLTCLVKGFYPSDISVEWESNGQPENNYKTTPPMLDSDGSFFLYSKLTVDKSRWQQGNVFSCSVMHEALHNHYTQKSLSLSPGK
light: B1 light
notes: Humanized full length IgG

Target: T1, cynomolgus macaque C5a
Test: co-immunoprecipitation from zymosan-activated serum with protein A beads; western blot with anti-C5a neoepitope antibody

Row | Binder | binding
1 | B1 | binds
2 | B2 | binds
3 | B3 | binds

Each binder was assayed against T2, rhesus macaque C5a (rhesus macaque) in the same assay as above.

Row | Binder | binding
4 | B1 | binds
5 | B2 | binds
6 | B3 | binds
